The other results are listed elsewhere or left out. The main result of the screen is listed elsewhere. These columns were measured beside it and carry no call. Compounds called inactive in the main read-out are mostly missing here. Words in brackets tell the shape of the fitted curve; partial curves, single points and poor fits give uncertain potencies.
Experiment: qHTS Assay for Lipid Storage Modulators in Drosophila S3 Cells;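 on cell number change: cells counted by Cell Tracker Red CMTPX staining in the red channel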
Settings: BODIPY lipid droplet fluorescence, 18-24 h; for cell number change: measured here: cell count max response, cells fed with added oleic acid
Procedure, shortened: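 Drosophila S3 cells loaded with oleic acid (400 uM, as added) and compounds at several concentrations; lipid droplets imaged by 488-nm laser-scanning cytometry, 500–530 nm intensity and object ratio to cell channel. Percent activity normalized to 20 uM Triacsin C.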

[1] = measured here: lipid fluorescence (Fed channel) AC50, cells fed with added oleic acid
[2] = measured here: cell number channel AC50, cells fed with added oleic acid

Row | Compound | cell number change [%] | AC50 [1] | AC50 [2]
1 | COc1cc(/C=C(\C#N)C(=O)NC2CCCCC2)ccc1OCc1ccc(C(=O)O)cc1 | -20.6 | 29.1 µM [falling, single point] | –
2 | COc1ccc(CC(=O)Oc2ccccc2[N+](=O)[O-])cc1 | -9.39 | – | –
3 | COc1ccc(-n2nc(C(=O)NCC3CCCO3)c3ccccc3c2=O)cc1 (centres undefined) | -20 | 29.1 µM [falling, single point] | –
4 | COc1ccccc1C(=O)Nc1ccc(Oc2ncnc3sc(-c4ccccc4)cc23)cc1 | 1.13 | – | –
5 | CCc1ccc(NC(=O)c2cc(C)no2)cc1 | -36 | – | 29.1 µM [falling, single point]
6 | CN(C)CCCN(C(=O)c1ccc2c(c1)CCCC2)c1nc2ccc(F)cc2s1 | -39.8 | 29.1 µM [falling, single point] | 29.1 µM [falling, single point]
7 | CCOC(=O)c1[nH]c2c(c1C)C(=O)CC(c1ccc(OC)c(OC)c1)C2 (centres undefined) | 34.7 | 1.03 µM [rising, single point] | 1.16 µM [rising, full curve]
8 | Cc1ccc(OCCn2cccn2)c(C)c1 | 27.6 | 14.6 µM [rising, partial curve, poor fit] | –
9 | CCN(CC)c1nc(Nc2ccccc2)nc(Oc2ccc(=O)n(C)n2)n1 | -14.6 | – | –
10 | CCC(C)Sc1ccc([C@H]2N[C@@](CC(C)C)(C(=O)OC)[C@H]3C(=O)N(C)C(=O)[C@@H]23)cc1 (some centres undefined) | -78 | 2.91 µM [falling, partial curve, poor fit] | 20.6 µM [falling, partial curve]
11 | CC/C(=C\C1CCCCC1)C(NP(=O)(c1ccccc1)c1ccccc1)c1ccccc1 (centres undefined) | -86.9 | 29.1 µM [falling, single point] | 25.9 µM [falling, single point]
12 | Cc1cc(C)c(C(N)=O)c(Cl)n1 | 54.8 | – | 0.651 µM [rising, full curve]
13 | CCC(CO)Oc1cc(NCc2ccc(OC)cc2)c2ncn(C(C)C)c2c1 (centres undefined) | -19.4 | – | –
14 | O=C(CCN1C(=O)CSC1=O)Nc1ccccc1 | 14.5 | – | –
15 | COc1cc(CN2CC(=O)N(c3ccc(C)c(Cl)c3)C2=S)cc(OC)c1OC | 18.1 | 20.6 µM [rising, partial curve, poor fit] | –
16 | Cc1cc(C(=O)N2CCCC(Nc3ccc(F)cc3)C2)n(C)n1 (centres undefined) | 19.4 | 0.103 µM [rising, full curve, poor fit] | –
17 | COc1ccc(C(=O)O)cc1N1C(=O)Nc2ccccc2N1O | -46.7 | – | –
18 | C=CCc1c(C)nc(SC(C)C)[nH]c1=O | -9.4 | 0.13 µM [falling, full curve, poor fit] | –
19 | COc1ccc(-c2nnc3ccc(SCC(=O)NCc4ccco4)nn23)cc1OC | -56.4 | 0.82 µM [rising, single point] | 29.1 µM [falling, single point]
20 | Cc1c(NC(=S)NC(=O)C(c2ccccc2)c2ccccc2)cccc1C(=O)O | 8.23 | 29.1 µM [rising, single point] | –
21 | COC(=O)c1cc(NC2c3ncccc3C(=O)N2Cc2ccccc2)cc(C(=O)OC)c1 (centres undefined) | -10.5 | 0.731 µM [rising, single point] | –

Row | Compound | cell number change [%] | AC50 [1] | AC50 [2]
22 | COc1ccc(OCC(=O)O/N=C(\N)Cc2ccc(Cl)cc2)cc1 | 39.7 | – | 29.1 µM [rising, single point]
23 | N#Cc1nc(-c2ccccc2F)oc1NCCc1ccccc1 | -11.5 | 0.00517 µM [falling, full curve, poor fit] | –
24 | COC(=O)CSc1nnc(CNS(=O)(=O)c2ccc(C)cc2)n1C | -8.92 | – | –
25 | C#CCOCCOCCOCCNc1nc(N2CCN(C(=O)CCCCCCCCCCNC(=O)[C@H]([C@@H](C)CC)n3cc(CCCCCN)nn3)CC2)nc(N2CCN(C(=O)CCCCCCCCCCNC(=O)[C@H](CCCCN)n3cc(CCCC(=O)O)nn3)CC2)n1 | -53.7 | 0.92 µM [falling, full curve] | 1.03 µM [falling, full curve]
26 | C/C(=N\NC(=O)c1ccccc1C)c1cccnc1 | 13.3 | 29.1 µM [rising, single point] | –
27 | c1ccc(C[C@H]2CN=C(Nc3ccccc3)N2CCCC2CCCC2)cc1 | 12.6 | 16.4 µM [falling, single point] | –
28 | COc1ccc(C(=O)/C=C/c2ccc(N3CCCCC3)c([N+](=O)[O-])c2)cc1 | -28.8 | 14.6 µM [falling, single point] | –
29 | Cc1ccc(NC(=S)N(CCCN2CCN(C)CC2)Cc2cccs2)cc1C | 10.7 | 5.8 µM [rising, partial curve] | –
30 | CCn1c(SCC(=O)c2ccccc2)nnc1-c1cccs1 | 19.3 | – | –
31 | O=C(CCc1nnc2ccc(NCc3ccc(F)cc3)nn12)NC1CCCC1 | 16.5 | 29.1 µM [falling, single point] | –
32 | Cn1cnc2c(N3CCCCC3)nccc21 | -1.66 | 20.6 µM [falling, partial curve] | 0.411 µM [falling, full curve]
33 | O=S(=O)(CCc1ccncc1)C1Cc2cccc3cccc1c23 (centres undefined) | 41.2 | 6.51 µM [rising, partial curve, poor fit] | 29.1 µM [rising, single point]
34 | Cc1ccc(Cn2nnc3c(=O)[nH]c(C4CCN(S(=O)(=O)Cc5ccccc5)CC4)nc32)cc1 | 2.94 | – | –
35 | Cn1cc(Br)c(C(=O)NC(=S)Nc2ccc(S(N)(=O)=O)cc2)n1 | – | 29.1 µM [rising, single point] | –
36 | Cc1c(-n2cc(C(=O)O)c(=O)c3cc(F)c(N4CCCC4)c(F)c32)c(=O)n(-c2ccccc2)n1C | -0.753 | – | –
37 | Cc1ccc(C2CC(C(F)(F)F)n3nc(C(=O)NCc4ccco4)cc3N2)cc1 (centres undefined) | 2.73 | – | –
38 | CCOc1ccc(NC(=O)c2cccc3c2C(=O)N(Cc2cccnc2)C3)cc1 | – | 2.59 µM [rising, partial curve] | 2.31 µM [rising, partial curve]
39 | NNC(=O)c1csc(Cc2c(Cl)sc3ccc(Cl)cc23)n1 | -26.8 | 0.058 µM [falling, full curve, poor fit] | 0.00411 µM [falling, full curve, poor fit]
40 | CCOC(=O)c1ccc2c(c1)[nH]c(=S)n2CC | 24.8 | 5.17 µM [rising, partial curve, poor fit] | –
41 | O=C(CCN1C(=O)[C@@H]2Cc3ccccc3CN2C1=O)N[C@@H](Cc1ccccc1)C(=O)O | 13.7 | 29.1 µM [rising, single point] | –
42 | O=C(NCc1ccco1)c1cccc(S(=O)(=O)N2CCOCC2)c1 | -2.04 | 6.51 µM [rising, single point] | –

A draw from above in order of length of the SMILES, rising.
Row | Compound | cell number change [%] | AC50 [1] | AC50 [2]
24 | COC(=O)CSc1nnc(CNS(=O)(=O)c2ccc(C)cc2)n1C | -8.92 | – | –
9 | CCN(CC)c1nc(Nc2ccccc2)nc(Oc2ccc(=O)n(C)n2)n1 | -14.6 | – | –
36 | Cc1c(-n2cc(C(=O)O)c(=O)c3cc(F)c(N4CCCC4)c(F)c32)c(=O)n(-c2ccccc2)n1C | -0.753 | – | –

Remaining list, next part.

Row | Compound | cell number change [%] | AC50 [1] | AC50 [2]
43 | COCCCN1C(=O)C(=O)/C(=C(/O)c2ccc(C)cc2)C1c1ccccc1 (centres undefined) | 3.76 | – | 0.00517 µM [falling, full curve, poor fit]
44 | COc1ccccc1NS(=O)(=O)c1ccc2c(c1)OCCO2 | -0.403 | 20.6 µM [rising, single point] | –
45 | CCOC(=O)Cc1csc(Nc2c(C)n(C)n(-c3ccccc3)c2=O)n1 | 4.25 | 6.51 µM [falling, single point] | –
46 | CC(C)(C)NC(=O)/C(=C/c1cccnc1)NC(=O)c1ccco1 | -31.2 | 7.31 µM [falling, partial curve, poor fit] | 14.6 µM [falling, partial curve, poor fit]
47 | CN(C)c1ccc(N=Nc2ccccc2C(=O)OCC(=O)N(C)c2ccccc2)cc1 | -75.2 | 25.9 µM [falling, partial curve] | 29.1 µM [falling, single point]
48 | Fc1ccc(COc2cccc3cccnc23)cc1 | -41.6 | – | –
49 | CCOc1cc(C(=O)N2CCc3cc(OC)c(OC)cc3C2)ccc1OC(F)F | 1.25 | – | –
50 | CC12CCC(C(=O)N3CCN(Cc4ccccc4)CC3)(OC1=O)C2(C)C (centres undefined) | 6.83 | – | –
51 | Cc1ccnc(SCc2cn3c(C)cc(C)nc3n2)n1 | 32.7 | – | –
52 | O=C(O)CC(NC(=O)c1cccc(F)c1)c1ccc(OC2CCCC2)cc1 (centres undefined) | – | 6.51 µM [rising, single point] | –
53 | Cn1c(SCC(=O)Nc2ccc(F)cc2)nc2c(c1=O)SCC2 | -7.62 | – | –
54 | C#CCOCCOCCOCCNc1nc(N2CCN(C(=O)CCCCCCCCCCNC(=O)Cn3cc(C[C@@H](C)O)nn3)CC2)nc(N2CCN(C(=O)CCCCCCCCCCNC(=O)[C@H](CO)n3cc(CCCSC)nn3)CC2)n1 | 8.84 | 6.51 µM [rising, single point] | 0.411 µM [falling, partial curve, poor fit]
55 | COc1ccc(NC(=O)c2sc3ncn(CC(=O)N4CCCCC4)c(=O)c3c2C)cc1OC | 19.4 | 32.6 µM [rising, single point] | –
56 | CCOc1ccccc1/C=N/n1c(COc2ccccc2)n[nH]c1=S | -15.3 | 0.326 µM [falling, full curve] | –
57 | CCC(C)(C)n1nnnc1C(C(C)C)N1CCSCC1 (centres undefined) | -18.8 | – | –
58 | COc1ccc(S(=O)(=O)NCc2cn3c(C)csc3n2)cc1F | – | 2.06 µM [rising, partial curve] | 2.31 µM [rising, partial curve]
59 | Cc1ccccc1C(=O)Nc1ccc(C(=O)N/N=C/c2ccc(O)cc2)cc1 | -1.71 | 29.1 µM [falling, single point] | –
60 | CCc1nc(CNC(=O)C2CCC(=O)N(CCc3ccc(OC)cc3)C2)cs1 (centres undefined) | 4.69 | – | –
61 | COc1ccc(-c2csc(NC(=O)C3CCN(c4ncnc5sc(C)c(C)c45)CC3)n2)cc1OC | 40 | – | 4.61 µM [rising, single point]

Records 55–56 of the list above:
Row | Compound | cell number change [%] | AC50 [1] | AC50 [2]
55 | COc1ccc(NC(=O)c2sc3ncn(CC(=O)N4CCCCC4)c(=O)c3c2C)cc1OC | 19.4 | 32.6 µM [rising, single point] | –
56 | CCOc1ccccc1/C=N/n1c(COc2ccccc2)n[nH]c1=S | -15.3 | 0.326 µM [falling, full curve] | –

— PubChem BioAssay AID2685 (National Center for Advancing Translational Sciences (NCATS), 2010)
